{"source": "PubChem BioAssay AID1259308 (NCATS, 2017)", "screen": "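Knock-downs that increase output of a recombinant reporter protein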 (primary screen)", "cells": "human HEK293 embryonic kidney cells stably expressing firefly luciferase (HEK-CMV-Luc2-Hygro)", "knock-down reagent": "single siRNA against human genes, 0.8 pmol siRNA per well", "duration": "72 h", "measurement": "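Luciferase light (ONE-Glo) measured on one replicate plate set and viability (CellTiter-Glo) on the other, scaled to a negative control siRNA, with robust z-scores and luciferase per cell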", "reading the numbers": "total luciferase, z-score and total luciferase, % of control: higher = more reporter protein produced", "rule for the call": "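Active when the median/MAD z-score for overall luciferase is greater than 3; a gene was taken forward for validation with new siRNAs if at least two of its three siRNAs passed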", "calls": "active = raised luciferase; inactive = no rise", "note": "This is a random part of about 59,000 reagents. About 1,510 of all reagents (2.6%) were called active. 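Calls use total luciferase alone and ignore viability, so some active siRNAs may act by altering cell number.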 Entries without a mark were called inactive. The numbers tell different reagents against one gene apart. Not all columns of the deposit are shown. Reagent sequences are not shown."}
{"target gene": "CNN3-DT", "reagent": 1, "total luciferase, z-score": 0.203, "total luciferase, % of control": 85.9}
{"target gene": "CNN3-DT", "reagent": 2, "total luciferase, z-score": -1.37, "total luciferase, % of control": 54.7}
{"target gene": "CNN3-DT", "reagent": 3, "total luciferase, z-score": 0.692, "total luciferase, % of control": 95.6}
{"target gene": "TNFAIP1", "reagent": 1, "total luciferase, z-score": -0.885, "total luciferase, % of control": 64.3}
{"target gene": "TNFAIP1", "reagent": 2, "total luciferase, z-score": 1.28, "total luciferase, % of control": 107}
{"target gene": "TNFAIP1", "reagent": 3, "total luciferase, z-score": -1.72, "total luciferase, % of control": 47.6}
{"target gene": "PNLIP", "reagent": 1, "total luciferase, z-score": -0.407, "total luciferase, % of control": 73.8}
{"target gene": "PNLIP", "reagent": 2, "total luciferase, z-score": 0.717, "total luciferase, % of control": 96.1}
{"target gene": "PNLIP", "reagent": 3, "total luciferase, z-score": -0.174, "total luciferase, % of control": 78.4}
{"target gene": "MPHOSPH6", "reagent": 1, "total luciferase, z-score": -0.295, "total luciferase, % of control": 76}
{"target gene": "MPHOSPH6", "reagent": 2, "total luciferase, z-score": 0.359, "total luciferase, % of control": 89}
{"target gene": "MPHOSPH6", "reagent": 3, "total luciferase, z-score": 0.93, "total luciferase, % of control": 100}

Targets above whose gene name starts with T or t:
{"target gene": "TNFAIP1", "reagent": 1, "total luciferase, z-score": -0.885, "total luciferase, % of control": 64.3}
{"target gene": "TNFAIP1", "reagent": 2, "total luciferase, z-score": 1.28, "total luciferase, % of control": 107}
{"target gene": "TNFAIP1", "reagent": 3, "total luciferase, z-score": -1.72, "total luciferase, % of control": 47.6}
